Consider one substance from PMC2629459.

By UniProt entry, the sequences of proteins in these tests, tags left out. Where a name states a change or a piece, a line headed by the entry shows the natural chain unless it says otherwise.
UniProt Q00987: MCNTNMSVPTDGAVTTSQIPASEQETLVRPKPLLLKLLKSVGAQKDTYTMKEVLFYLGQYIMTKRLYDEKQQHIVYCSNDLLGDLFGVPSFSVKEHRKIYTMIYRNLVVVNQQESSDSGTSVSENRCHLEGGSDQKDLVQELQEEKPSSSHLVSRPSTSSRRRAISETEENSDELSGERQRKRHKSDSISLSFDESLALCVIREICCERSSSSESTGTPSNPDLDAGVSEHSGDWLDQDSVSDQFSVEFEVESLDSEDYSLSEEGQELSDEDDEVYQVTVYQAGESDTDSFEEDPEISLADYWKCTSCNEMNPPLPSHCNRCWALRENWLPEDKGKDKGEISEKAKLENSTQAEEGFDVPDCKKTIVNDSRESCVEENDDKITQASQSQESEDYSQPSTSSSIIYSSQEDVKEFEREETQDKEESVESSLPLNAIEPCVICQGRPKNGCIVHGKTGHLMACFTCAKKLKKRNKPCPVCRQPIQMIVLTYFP
UniProt P12504: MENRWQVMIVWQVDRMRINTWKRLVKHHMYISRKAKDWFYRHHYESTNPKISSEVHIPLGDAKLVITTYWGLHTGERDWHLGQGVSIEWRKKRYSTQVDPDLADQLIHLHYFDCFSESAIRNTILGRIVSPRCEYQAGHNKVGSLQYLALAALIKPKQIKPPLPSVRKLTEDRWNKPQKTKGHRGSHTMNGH

In assay [1] the target is HA-tagged MDM2 mutant deleted in the Zn Finger domain (UniProt Q00987). Nature of the assay: co-IP; HEK293T cotransfected with HA-tagged MDM2 Wt or deletion mutants and pNL-A1, MG132 for 6 hrs; immunoprecipitated with anti-HA mAb, blotted with anti-Vif mAb.
Assay [2] deals with HA-tagged MDM2 mutant deleted in the acidic domain (UniProt Q00987). The description is as above.

No constants are given. Whether binding was seen depends on the method and setting. In cells and extracts the contact can be indirect.

For the substance “HIV-1 Vif expressed from the subgenomic vector pNL-A1 (from UniProt P12504 1-192)”, the binding entry in assay [1] and in assay [2] was “no binding” each time.
